# The other results are listed elsewhere or left out.
# B1: PX9961Q-bfa-504-27-504 (Bacteroides fragilis) (protein)
# chain: NDWLDRKPADGIPSEDAITNYNDALTARTGMYDGIQGNSNATSYYGARMFYYGDVRADDMQARTQGMRSSSCYEMLYTVDDAPNMWNIPYNVIRRANRLIEAINEKKVTDATEAQIGKIYSEALVVRALVHFDLVRIYGMPYTADNGASLGVPVIVKPLERNDLPSRNTVAEVYTQVITDLTDAINSGYLAKDQTPGYINEWAAKALLTRVYLTKGDNENALKVAEDIITNSPYKLWTNEEYVNAWYKSNGAHTNEMIFEVVNASNDDWTDRNGIAYLLNENGYADAIVTKSFMNMLSQDPKDVRIGMVLPAQYDKDLQEEYGDAKIFINKFPADKDDVGEMRLNNLPLLRLSEVYLSAAEAAAKLGGHQDKAAKYLNEIVQRANPEAKAISEADATVERIILERRKEMIGEGQRYFDALRNNETIVRYKDEGDKGYHYSLIKESQSFDRTYFRAILPIPVDETNVNPNLRAQQNPGY
# Experiments:
# Test in all cases: glycan array binding signal (z-score within array); higher = stronger binding
# Conditions in all cases: glycan notation: IUPAC condensed, linker removed
# [1] = target: Gal(b1-4)Glc
# Procedure, shortened: (§1)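 The binding signal is a Z-score computed within each array and averaged over linkers. Arrays of the same protein sequence at different concentrations or buffers were also averaged together. Data originate from 3228 arrays in the Consortium for Functional Glycomics database, kept only where the protein sequence was available.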
# [2] = target: Gal(b1-4)Glc6S
# Procedure, shortened: as §1
# [3] = target: Gal(b1-4)GlcNAc
# Procedure, shortened: as §1
# [4] = target: Gal(b1-4)GlcNAc(a1-6)Gal(b1-4)GlcNAc
# Procedure, shortened: as §1
# [5] = target: Gal(b1-4)GlcNAc(b1-2)Man
# Procedure, shortened: as §1
# [6] = target: Gal(b1-4)GlcNAc(b1-2)Man(a1-3)Man(b1-4)GlcNAc(b1-4)GlcNAc
# Procedure, shortened: as §1
# [7] = target: Gal(b1-4)GlcNAc(b1-2)Man(a1-3)[Gal(b1-4)GlcNAc(b1-2)Man(a1-6)]Man(b1-4)GlcNAc(b1-4)GlcNAc
# Procedure, shortened: as §1
# [8] = target: Gal(b1-4)GlcNAc(b1-2)Man(a1-3)[Gal(b1-4)GlcNAc(b1-2)Man(a1-6)]Man(b1-4)GlcNAc(b1-4)[Fuc(a1-6)]GlcNAc
# Procedure, shortened: as §1
# [9] = target: Gal(b1-4)GlcNAc(b1-2)Man(a1-3)[Gal(b1-4)GlcNAc(b1-2)Man(a1-6)][Gal(b1-4)GlcNAc(b1-4)]Man(b1-4)GlcNAc(b1-4)[Fuc(a1-6)]GlcNAc
# Procedure, shortened: as §1
# [10] = target: Gal(b1-4)GlcNAc(b1-2)Man(a1-3)[Gal(b1-4)GlcNAc(b1-2)Man(a1-6)][GlcNAc(b1-4)]Man(b1-4)GlcNAc(b1-4)[Fuc(a1-6)]GlcNAc
# Procedure, shortened: as §1
# [11] = target: Gal(b1-4)GlcNAc(b1-2)Man(a1-3)[GlcNAc(b1-2)Man(a1-6)]Man(b1-4)GlcNAc(b1-4)GlcNAc
# Procedure, shortened: as §1
# [12] = target: Gal(b1-4)GlcNAc(b1-2)Man(a1-3)[GlcNAc(b1-4)][Gal(b1-4)GlcNAc(b1-2)Man(a1-6)]Man(b1-4)GlcNAc(b1-4)GlcNAc
# Procedure, shortened: as §1
# [13] = target: Gal(b1-4)GlcNAc(b1-2)Man(a1-3)[Man(a1-6)]Man(b1-4)GlcNAc(b1-4)GlcNAc
# Procedure, shortened: as §1
# [14] = target: Gal(b1-4)GlcNAc(b1-2)Man(a1-6)Man(b1-4)GlcNAc(b1-4)GlcNAc
# Procedure, shortened: as §1
# [15] = target: Gal(b1-4)GlcNAc(b1-2)Man(a1-6)[GlcNAc(b1-2)Man(a1-3)]Man(b1-4)GlcNAc(b1-4)GlcNAc
# Procedure, shortened: as §1
# [16] = target: Gal(b1-4)GlcNAc(b1-2)Man(a1-6)[Man(a1-3)]Man(b1-4)GlcNAc(b1-4)GlcNAc
# Procedure, shortened: as §1
# [17] = target: Gal(b1-4)GlcNAc(b1-2)[Gal(b1-4)GlcNAc(b1-4)]Man(a1-3)[Gal(b1-4)GlcNAc(b1-2)Man(a1-6)]Man(b1-4)GlcNAc(b1-4)GlcNAc
# Procedure, shortened: as §1
# [18] = target: Gal(b1-4)GlcNAc(b1-2)[Gal(b1-4)GlcNAc(b1-4)]Man(a1-3)[Gal(b1-4)GlcNAc(b1-2)[Gal(b1-4)GlcNAc(b1-6)]Man(a1-6)]Man(b1-4)GlcNAc(b1-4)GlcNAc
# Procedure, shortened: as §1
# [19] = target: Gal(b1-4)GlcNAc(b1-2)[Gal(b1-4)GlcNAc(b1-4)]Man(a1-3)[GlcNAc(b1-4)][Gal(b1-4)GlcNAc(b1-2)Man(a1-6)]Man(b1-4)GlcNAc(b1-4)GlcNAc
# Procedure, shortened: as §1
# [20] = target: Gal(b1-4)GlcNAc(b1-2)[Gal(b1-4)GlcNAc(b1-4)]Man(a1-3)[GlcNAc(b1-4)][Gal(b1-4)GlcNAc(b1-2)[Gal(b1-4)GlcNAc(b1-6)]Man(a1-6)]Man(b1-4)GlcNAc(b1-4)GlcNAc
# Procedure, shortened: as §1
# [21] = target: Gal(b1-4)GlcNAc(b1-2)[Gal(b1-4)GlcNAc(b1-6)]Man(a1-6)[Gal(b1-4)GlcNAc(b1-2)Man(a1-3)]Man(b1-4)GlcNAc(b1-4)GlcNAc
# Procedure, shortened: as §1
# [22] = target: Gal(b1-4)GlcNAc(b1-2)[Gal(b1-4)GlcNAc(b1-6)]Man(a1-6)[Gal(b1-4)GlcNAc(b1-2)Man(a1-3)]Man(b1-4)GlcNAc(b1-4)[Fuc(a1-6)]GlcNAc
# Procedure, shortened: as §1
binder,measurement,setting,value
B1,glycan array binding signal (z-score),[1],-0.183
same,glycan array binding signal (z-score),[2],-0.694
same,glycan array binding signal (z-score),[3],0.022
same,glycan array binding signal (z-score),[4],1.56
same,glycan array binding signal (z-score),[5],0.113
same,glycan array binding signal (z-score),[6],-0.192
same,glycan array binding signal (z-score),[7],-0.612
same,glycan array binding signal (z-score),[8],0.164
same,glycan array binding signal (z-score),[9],-0.182
same,glycan array binding signal (z-score),[10],-0.897
same,glycan array binding signal (z-score),[11],-0.556
same,glycan array binding signal (z-score),[12],-0.747
same,glycan array binding signal (z-score),[13],-0.622
same,glycan array binding signal (z-score),[14],-0.661
same,glycan array binding signal (z-score),[15],-0.167
same,glycan array binding signal (z-score),[16],-0.621
same,glycan array binding signal (z-score),[17],-0.277
same,glycan array binding signal (z-score),[18],-0.731
same,glycan array binding signal (z-score),[19],-0.27
same,glycan array binding signal (z-score),[20],0.322
same,glycan array binding signal (z-score),[21],2.39
same,glycan array binding signal (z-score),[22],0.014

# Nothing new here: an excerpt of the list.
binder,measurement,setting,value
B1,glycan array binding signal (z-score),[11],-0.556
same,glycan array binding signal (z-score),[12],-0.747
